Data from the supplement of paper PMC10382679.
Single values of this set are uncertain.

B1: Rpb7; numbered along this chain (parent)
chain: MFFIKDLSLNITLHPSFFGPRMKQYLKTKLLEEVEGSCTGKFGYILCVLDYDNIDIQRGRILPTDGSAEFNVKYRAVVFKPFKGEVVDGTVVSCSQHGFEVQVGPMKVFVTKHLMPQDLTFNAGSNPPSYQSSEDVITIKSRIRVKIEGCISQVSSIHAIGSIKEDYLGAI

Columns and labels:
[1] = variants of: B1; assay: log2 fold change of mutant abundance, UV-irradiated vs unirradiated; higher = more UV resistant (enriched after UV); conditions: with Saccharomyces cerevisiae rad7Δ rad26Δ; UV dose (J/m2): 10; genetic background: rad7Δ rad26Δ rpb7Δ + plasmid RPB7 library; outgrowth: 10 cell divisions
[2] = variants of: B1; assay: NOISeq theta enrichment statistic, UV-irradiated vs unirradiated (dimensionless); higher = more UV resistant (enriched after UV); conditions: with Saccharomyces cerevisiae rad7Δ rad26Δ; UV dose (J/m2): 10; genetic background: rad7Δ rad26Δ rpb7Δ + plasmid RPB7 library; outgrowth: 10 cell divisions

Variant | log2 fold change of mutant abundance [1] | NOISeq theta enrichment statistic [2]
T111E | -0.0161 | -0.0219
T111V | 0.845 | 0.682
T111P | 0.266 | 0.636
T111A | 0.0515 | 0.19
T111N | 0.261 | 0.371
T111S | -0.551 | -1.89
T111L | 1.1 | 0.931
T111R | -0.0273 | -0.0498
T111G | 0.116 | 0.109
T111I | 1.33 | 2.43
T111H | 0.373 | 0.239
T111K | 0.0147 | 0.111
M106Q | 0.0927 | 0.0879
M106N | 0.0348 | 0.0497
M106G | -0.222 | -0.182
M106H | 0.252 | 0.181
M106S | 0.0952 | 0.148
M106A | -0.323 | -0.139
M106P | 0.0921 | 0.0536
M106F | -0.102 | -0.0682

Variant | log2 fold change of mutant abundance [1] | NOISeq theta enrichment statistic [2]
M106T | 0.172 | 0.42
M106R | 0.0649 | 0.274
M106W | 0.0482 | 0.042
M106K | -0.0111 | -0.0321
M106E | 0.0555 | 0.0421
M106L | 0.213 | 0.947
M106C | 0.0141 | 0.00942
M106V | 0.0758 | 0.329
M106I | 0.0927 | 0.454
V108R | -0.0533 | -0.0682
V108S | 0.167 | 0.179
V108E | 0.144 | 0.356
V108L | 0.0394 | 0.0931
V108D | 0.231 | 0.25
V108G | 0.0761 | 0.477
V108A | 0.0925 | 0.199
V108C | 0.371 | 0.248
V108K | 1.1 | 0.523
V108I | -0.00687 | -0.0219
V108M | -0.351 | -0.274

Retrieved one by one from the entries so far (two):
Variant | log2 fold change of mutant abundance [1] | NOISeq theta enrichment statistic [2]
V108A | 0.0925 | 0.199
M106I | 0.0927 | 0.454

The list goes on:

Variant | log2 fold change of mutant abundance [1] | NOISeq theta enrichment statistic [2]
V108Y | 0.215 | 0.112
V108F | -0.157 | -0.146
V108Q | 0.202 | 0.187
V108T | 0.412 | 0.298
T120D | -0.13 | -0.096
T120K | -0.188 | -0.127
T120G | 0.358 | 0.216
T120V | 0.568 | 0.252
T120A | 0.0309 | 0.133
T120N | 0.0178 | 0.0604
T120I | 0.0535 | 0.14
T120R | 0.414 | 0.283
T120Y | 0.00323 | 0.00271
T120S | 0.00721 | 0.0407
T120P | 0.0419 | 0.0909
T120H | 0.0979 | 0.0827
F121A | 0.31 | 0.212
F121I | -0.0902 | -0.343
